Laboratory results: the supplement of paper PMC8920030
This continues a long series; more values of the same kind are listed elsewhere. Where a SMILES comes first, the peptide text is derived from it. Bridges are numbered along the chain shown (N, C = ends). [ ]: non-standard residue; d: D form. The star is where a group is joined. Heptanoyl(5-Me) = CCC(C)CCCC(=O)*; Dab = NCC[C@H](N)C(=O)O

How the values were obtained:
Settings in all cases: growth mode: biofilm, 24 h; exposure time: 24 h
[1] = compound: T1, NC[C@H]1O[C@H](O[C@H]2[C@H](O)[C@@H](O[C@H]3O[C@H](CO)[C@@H](O)[C@H](N)[C@H]3O)[C@H](N)C[C@@H]2N)[C@H](N)C[C@@H]1O [tobramycin]; assay: minimum concentration eradicating biofilm below detection limit (MCK-E); higher = more biofilm tolerance
Protocol: (§1)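 Clinical P. aeruginosa isolates were grown as static biofilms for 24 h at 37 °C in LB in half-area 96-well plates, then exposed for 24 h to tobramycin at 1, 4, 16, 64, 256 or […]. Surviving CFU were counted by spotting serial dilutions. MCK is the lowest tested concentration giving the stated log reduction in CFU versus an untreated control; '>1024' means the reduction was not reached at the top dose, and 1 is the lowest dose tested (≤1).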

[2] = compound: T2, CCC(C)CCCC(=O)N[C@@H](CCN)C(=O)N[C@H](C(=O)N[C@@H](CCN)C(=O)N[C@H]1CCNC(=O)[C@H]([C@@H](C)O)NC(=O)[C@H](CCN)NC(=O)[C@H](CCN)NC(=O)[C@H](CC(C)C)NC(=O)[C@@H](CC(C)C)NC(=O)[C@H](CCN)NC1=O)[C@@H](C)O [colistin]; assay: as above
Protocol: (§2)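 Clinical P. aeruginosa isolates were grown as static biofilms for 24 h at 37 °C in LB in half-area 96-well plates, then exposed for 24 h to colistin at 1, 4, 16, 64, 256 or […]. Surviving CFU were counted by spotting serial dilutions. MCK is the lowest tested concentration giving the stated log reduction in CFU versus an untreated control; '>1024' means the reduction was not reached at the top dose, and 1 is the lowest dose tested (≤1).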

[3] = compound: T1, tobramycin; assay: minimum concentration of killing, 2-log CFU reduction of biofilm (MCK99); higher = more biofilm tolerance
Protocol: as §1

[4] = compound: T2, colistin; assay: minimum concentration of killing, 1-log CFU reduction of biofilm (MCK90); higher = more biofilm tolerance
Protocol: as §2

[5] = compound: T1, tobramycin; assay: as above
Protocol: as §1

[6] = compound: T2, colistin; assay: minimum concentration of killing, 2-log CFU reduction of biofilm (MCK99); higher = more biofilm tolerance
Protocol: as §2

[7] = compound: T2, colistin; assay: minimum concentration of killing, 4-log CFU reduction of biofilm (MCK99.99); higher = more biofilm tolerance
Protocol: as §2

[8] = compound: T1, tobramycin; assay: as above
Protocol: as §1

Test System | minimum concentration eradicating biofilm below detection limit [1] | minimum concentration eradicating biofilm below detection limit [2] | minimum concentration of killing [3] | minimum concentration of killing [4] | minimum concentration of killing [5] | minimum concentration of killing [6] | minimum concentration of killing [7] | minimum concentration of killing [8]
Pseudomonas aeruginosa clinical isolate MHH15286 | 256 µg/mL | 256 µg/mL | ≤ 1 µg/mL | 64 µg/mL | ≤ 1 µg/mL | 64 µg/mL | 256 µg/mL | 64 µg/mL
Pseudomonas aeruginosa clinical isolate CH2500 | 1020 µg/mL | 256 µg/mL | 64 µg/mL | 64 µg/mL | 4 µg/mL | 256 µg/mL | 256 µg/mL | 256 µg/mL
Pseudomonas aeruginosa clinical isolate CH2939 | 1020 µg/mL | 256 µg/mL | 64 µg/mL | 64 µg/mL | 4 µg/mL | 256 µg/mL | 256 µg/mL | 256 µg/mL
Pseudomonas aeruginosa clinical isolate CH4549 | 256 µg/mL | 256 µg/mL | 64 µg/mL | 256 µg/mL | 16 µg/mL | 256 µg/mL | 256 µg/mL | 256 µg/mL
Pseudomonas aeruginosa clinical isolate CH2747 | 64 µg/mL | 256 µg/mL | ≤ 1 µg/mL | 64 µg/mL | ≤ 1 µg/mL | 64 µg/mL | 256 µg/mL | 16 µg/mL
Pseudomonas aeruginosa clinical isolate MHH0426 | > 1020 µg/mL | 64 µg/mL | 1020 µg/mL | 16 µg/mL | 1020 µg/mL | 16 µg/mL | 64 µg/mL | > 1020 µg/mL
Pseudomonas aeruginosa clinical isolate MHH15103 | – | 256 µg/mL | 4 µg/mL | ≤ 1 µg/mL | ≤ 1 µg/mL | 256 µg/mL | 256 µg/mL | –
Pseudomonas aeruginosa clinical isolate CH4634 | > 1020 µg/mL | 256 µg/mL | 1020 µg/mL | 256 µg/mL | 64 µg/mL | 256 µg/mL | 256 µg/mL | > 1020 µg/mL
Pseudomonas aeruginosa clinical isolate CH4591 | 256 µg/mL | 256 µg/mL | 16 µg/mL | 16 µg/mL | 4 µg/mL | 64 µg/mL | 256 µg/mL | 64 µg/mL
Pseudomonas aeruginosa clinical isolate ZG02488718 | 256 µg/mL | 256 µg/mL | 4 µg/mL | 64 µg/mL | ≤ 1 µg/mL | 64 µg/mL | 256 µg/mL | 256 µg/mL
Pseudomonas aeruginosa clinical isolate PSAE1984 | 256 µg/mL | 256 µg/mL | 4 µg/mL | 64 µg/mL | 4 µg/mL | 64 µg/mL | 256 µg/mL | 256 µg/mL
Pseudomonas aeruginosa clinical isolate CH4755 | 256 µg/mL | 256 µg/mL | 64 µg/mL | 256 µg/mL | 64 µg/mL | 256 µg/mL | 256 µg/mL | 256 µg/mL
Pseudomonas aeruginosa clinical isolate MHH15204 | 1020 µg/mL | 64 µg/mL | 64 µg/mL | ≤ 1 µg/mL | ≤ 1 µg/mL | 16 µg/mL | 64 µg/mL | 1020 µg/mL
Pseudomonas aeruginosa clinical isolate PSAE1635 | 1020 µg/mL | 256 µg/mL | 4 µg/mL | 256 µg/mL | 4 µg/mL | 256 µg/mL | 256 µg/mL | 64 µg/mL
Pseudomonas aeruginosa clinical isolate ZG314696 | 256 µg/mL | 256 µg/mL | 4 µg/mL | 64 µg/mL | 4 µg/mL | 64 µg/mL | 256 µg/mL | 64 µg/mL
Pseudomonas aeruginosa clinical isolate MHH16050 | > 1020 µg/mL | 64 µg/mL | 1020 µg/mL | 64 µg/mL | 16 µg/mL | 64 µg/mL | 64 µg/mL | > 1020 µg/mL
Pseudomonas aeruginosa clinical isolate MHH17247 | 64 µg/mL | 256 µg/mL | 4 µg/mL | 256 µg/mL | 4 µg/mL | 256 µg/mL | 256 µg/mL | 16 µg/mL
Pseudomonas aeruginosa clinical isolate CH3177 | 256 µg/mL | 256 µg/mL | 64 µg/mL | 64 µg/mL | ≤ 1 µg/mL | 64 µg/mL | 256 µg/mL | 256 µg/mL
Pseudomonas aeruginosa clinical isolate CH5531 | – | 256 µg/mL | – | 256 µg/mL | – | 256 µg/mL | 256 µg/mL | –
Pseudomonas aeruginosa clinical isolate F2172 | 1020 µg/mL | 256 µg/mL | 16 µg/mL | 16 µg/mL | 4 µg/mL | 64 µg/mL | 64 µg/mL | 1020 µg/mL
Pseudomonas aeruginosa clinical isolate F2029 | – | – | 256 µg/mL | – | 4 µg/mL | – | – | –
Pseudomonas aeruginosa clinical isolate F2055 | > 1020 µg/mL | – | > 1020 µg/mL | – | 1020 µg/mL | – | – | > 1020 µg/mL
Pseudomonas aeruginosa clinical isolate F2065 | > 1020 µg/mL | – | 64 µg/mL | 256 µg/mL | 4 µg/mL | 256 µg/mL | 256 µg/mL | 256 µg/mL

Test System | minimum concentration eradicating biofilm below detection limit [1] | minimum concentration eradicating biofilm below detection limit [2] | minimum concentration of killing [3] | minimum concentration of killing [4] | minimum concentration of killing [5] | minimum concentration of killing [6] | minimum concentration of killing [7] | minimum concentration of killing [8]
Pseudomonas aeruginosa clinical isolate F2026 | – | – | – | – | 256 µg/mL | – | – | –
Pseudomonas aeruginosa clinical isolate MD1498 | – | 256 µg/mL | – | 64 µg/mL | – | 256 µg/mL | 256 µg/mL | –
Pseudomonas aeruginosa clinical isolate F2075 | – | 256 µg/mL | 64 µg/mL | 64 µg/mL | 16 µg/mL | 256 µg/mL | 256 µg/mL | 256 µg/mL
Pseudomonas aeruginosa clinical isolate MD9723 | 256 µg/mL | 256 µg/mL | 4 µg/mL | 64 µg/mL | ≤ 1 µg/mL | 64 µg/mL | 256 µg/mL | –
Pseudomonas aeruginosa clinical isolate CH5291 | > 1020 µg/mL | – | 256 µg/mL | 256 µg/mL | 64 µg/mL | 256 µg/mL | 256 µg/mL | 1020 µg/mL
Pseudomonas aeruginosa clinical isolate MD1496 | 256 µg/mL | 256 µg/mL | – | 64 µg/mL | 64 µg/mL | 256 µg/mL | 256 µg/mL | –
Pseudomonas aeruginosa clinical isolate F2044 | 256 µg/mL | – | 4 µg/mL | 64 µg/mL | ≤ 1 µg/mL | 256 µg/mL | 256 µg/mL | 16 µg/mL
Pseudomonas aeruginosa clinical isolate MHH16951 | > 1020 µg/mL | 64 µg/mL | – | 16 µg/mL | – | 16 µg/mL | 64 µg/mL | –
Pseudomonas aeruginosa clinical isolate F2081 | > 1020 µg/mL | 1020 µg/mL | 64 µg/mL | 256 µg/mL | 4 µg/mL | 256 µg/mL | 1020 µg/mL | –
Pseudomonas aeruginosa clinical isolate CH5353 | 1020 µg/mL | – | 4 µg/mL | 256 µg/mL | ≤ 1 µg/mL | 256 µg/mL | 256 µg/mL | 256 µg/mL
Pseudomonas aeruginosa clinical isolate CH2687 | 1020 µg/mL | 256 µg/mL | 16 µg/mL | 256 µg/mL | 4 µg/mL | 256 µg/mL | 256 µg/mL | –
Pseudomonas aeruginosa clinical isolate F2030 | > 1020 µg/mL | – | 1020 µg/mL | – | 256 µg/mL | – | – | –
Pseudomonas aeruginosa clinical isolate CH5548 | – | 256 µg/mL | – | 256 µg/mL | – | 256 µg/mL | 256 µg/mL | –
Pseudomonas aeruginosa clinical isolate CH4681 | 256 µg/mL | – | 256 µg/mL | – | 256 µg/mL | – | – | 256 µg/mL
Pseudomonas aeruginosa clinical isolate F2034 | > 1020 µg/mL | – | 256 µg/mL | – | 4 µg/mL | – | – | > 1020 µg/mL
Pseudomonas aeruginosa clinical isolate PSAE1439 | 1020 µg/mL | – | 64 µg/mL | – | 4 µg/mL | – | – | 1020 µg/mL
Pseudomonas aeruginosa clinical isolate CH5363 | 256 µg/mL | 256 µg/mL | – | 256 µg/mL | – | 256 µg/mL | 256 µg/mL | –
Pseudomonas aeruginosa clinical isolate CH3462 | > 1020 µg/mL | – | 256 µg/mL | – | 4 µg/mL | – | – | > 1020 µg/mL
Pseudomonas aeruginosa clinical isolate F2059 | > 1020 µg/mL | – | > 1020 µg/mL | 256 µg/mL | 1020 µg/mL | 256 µg/mL | 256 µg/mL | > 1020 µg/mL
Pseudomonas aeruginosa clinical isolate F2045 | > 1020 µg/mL | – | > 1020 µg/mL | 256 µg/mL | > 1020 µg/mL | > 1020 µg/mL | > 1020 µg/mL | > 1020 µg/mL
Pseudomonas aeruginosa clinical isolate M70639645 | 1020 µg/mL | – | 256 µg/mL | 64 µg/mL | 256 µg/mL | 256 µg/mL | 256 µg/mL | 1020 µg/mL
Pseudomonas aeruginosa clinical isolate F2035 | 1020 µg/mL | – | 64 µg/mL | – | 16 µg/mL | – | – | 1020 µg/mL
